# Percent effect of library compounds

Amino acid sequences for entries named in this document (tags omitted). Residues count along the entry.
UniProt Q4DA54, 1-478: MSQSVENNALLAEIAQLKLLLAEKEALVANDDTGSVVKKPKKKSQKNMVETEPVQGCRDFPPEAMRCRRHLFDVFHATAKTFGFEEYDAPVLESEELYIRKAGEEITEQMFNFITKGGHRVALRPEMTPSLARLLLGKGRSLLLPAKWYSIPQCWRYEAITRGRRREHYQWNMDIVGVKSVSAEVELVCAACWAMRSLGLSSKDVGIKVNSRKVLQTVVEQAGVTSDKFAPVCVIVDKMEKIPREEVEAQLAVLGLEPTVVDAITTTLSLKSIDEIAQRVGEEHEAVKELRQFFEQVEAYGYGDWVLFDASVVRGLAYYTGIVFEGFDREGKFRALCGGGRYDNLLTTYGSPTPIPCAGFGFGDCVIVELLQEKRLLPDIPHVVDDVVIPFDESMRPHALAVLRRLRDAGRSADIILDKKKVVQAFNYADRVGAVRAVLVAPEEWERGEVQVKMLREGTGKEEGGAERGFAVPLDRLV
UniProt A4I591, 1-473: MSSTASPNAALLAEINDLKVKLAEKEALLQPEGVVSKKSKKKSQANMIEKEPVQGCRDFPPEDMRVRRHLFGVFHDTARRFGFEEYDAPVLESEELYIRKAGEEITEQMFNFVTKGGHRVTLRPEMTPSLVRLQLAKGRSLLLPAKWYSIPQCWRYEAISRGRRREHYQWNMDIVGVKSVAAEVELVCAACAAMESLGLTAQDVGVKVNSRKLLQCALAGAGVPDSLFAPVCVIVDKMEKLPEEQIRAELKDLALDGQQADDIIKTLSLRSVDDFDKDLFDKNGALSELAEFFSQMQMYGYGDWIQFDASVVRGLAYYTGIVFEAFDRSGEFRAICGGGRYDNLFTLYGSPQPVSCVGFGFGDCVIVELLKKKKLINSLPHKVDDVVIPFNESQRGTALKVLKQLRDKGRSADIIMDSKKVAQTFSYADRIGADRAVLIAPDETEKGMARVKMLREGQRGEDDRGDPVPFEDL
UniProt Q8IDJ8, 1-583: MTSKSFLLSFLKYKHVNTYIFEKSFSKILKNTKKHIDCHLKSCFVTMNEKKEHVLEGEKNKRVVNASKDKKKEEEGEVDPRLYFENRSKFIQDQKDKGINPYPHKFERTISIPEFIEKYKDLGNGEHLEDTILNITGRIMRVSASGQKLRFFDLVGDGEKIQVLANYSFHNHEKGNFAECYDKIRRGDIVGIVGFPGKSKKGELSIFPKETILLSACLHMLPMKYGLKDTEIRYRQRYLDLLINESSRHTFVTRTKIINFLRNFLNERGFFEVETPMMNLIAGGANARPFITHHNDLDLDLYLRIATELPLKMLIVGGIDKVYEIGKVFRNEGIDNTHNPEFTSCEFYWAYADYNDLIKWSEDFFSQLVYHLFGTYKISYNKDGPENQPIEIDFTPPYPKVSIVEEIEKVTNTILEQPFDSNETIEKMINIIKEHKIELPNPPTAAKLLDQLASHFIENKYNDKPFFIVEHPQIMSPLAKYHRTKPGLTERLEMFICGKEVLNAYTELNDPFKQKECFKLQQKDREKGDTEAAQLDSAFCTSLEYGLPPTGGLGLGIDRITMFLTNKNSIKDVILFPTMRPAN
UniProt P9WNZ1, whole entry: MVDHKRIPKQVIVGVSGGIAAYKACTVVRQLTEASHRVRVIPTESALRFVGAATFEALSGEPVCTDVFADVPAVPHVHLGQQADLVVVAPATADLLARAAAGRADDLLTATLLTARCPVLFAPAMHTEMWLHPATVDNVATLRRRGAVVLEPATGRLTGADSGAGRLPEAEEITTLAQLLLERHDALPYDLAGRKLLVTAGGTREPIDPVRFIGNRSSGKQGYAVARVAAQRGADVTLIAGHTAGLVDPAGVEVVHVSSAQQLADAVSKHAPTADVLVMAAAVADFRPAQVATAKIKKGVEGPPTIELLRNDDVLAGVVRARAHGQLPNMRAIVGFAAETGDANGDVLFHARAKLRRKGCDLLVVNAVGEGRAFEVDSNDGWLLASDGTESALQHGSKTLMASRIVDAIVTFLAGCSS

Measurements from “University of Dundee, Small-Polar-MMV Screening Library” (2021), ChEMBL document CHEMBL3988442.

TcHisRS: 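Enzyme assay of histidyl-tRNA synthetase; the read-out is not stated. Target: Histidine-tRNA ligase, Trypanosoma cruzi CL Brener (UniProt Q4DA54). Compounds at 30 µM. The record gives no direction; compounds that gave an IC50 in retests scored well above the rest, so higher reads as stronger inhibition. Size under these conditions: about 69,000 compounds, about 31 of them at 50% or above in at least one test.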
LiHisRS: 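Histidine-tRNA ligase, Leishmania infantum (UniProt A4I591). Enzyme assay of histidyl-tRNA synthetase; the read-out is not stated. Concentration: 30 µM. The record gives no direction; compounds that gave an IC50 in retests scored well above the rest, so higher reads as stronger inhibition. The assay is labelled LdHisRS but filed under L. infantum. Size under these conditions: about 69,000 compounds, about 410 of them at 50% or above in at least one test.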
Toxoplasma: 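Assay of Toxoplasma gondii numbers, read through their beta-galactosidase reporter with a colour substrate. Tested at 10 µM. Higher reads as fewer parasites (inferred from which compounds were picked for retests). About 67,000 compounds were tested under these conditions; 0.38% (about 260) showed 50% or more at least once.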
PfKRS1: 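Enzyme assay of the cytosolic lysyl-tRNA synthetase in 384-well plates, read by luminescence. Target: Lysine-tRNA ligase, Plasmodium falciparum 3D7 (UniProt Q8IDJ8). Tested at 30 µM. Higher reads as stronger inhibition, judged from the few compounds that gave an IC50. Of about 69,000 compounds tested this way, about 49 (0.071%) reached 50% or more in at least one test.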
CoaBC: 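Enzyme assay of CoaBC with a phosphate dye (Biomol Green) read at 650 nm. Target: Coenzyme A biosynthesis protein CoaBC, Mycobacterium tuberculosis (UniProt P9WNZ1). Compounds at 30 µM. Higher reads as stronger inhibition, judged from the few compounds that gave an IC50. Most strong results did not repeat in a second test. About 67,000 compounds were tested under these conditions; 0.06% (about 40) showed 50% or more at least once.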

The filed quantity is “Percent Effect” (%).
The record does not define 0% and 100%; most values in the screen are far below 50% and negative numbers occur (in some assays of this library far below -100).
Compounds were drawn at random from those tested, without regard to their results.
A dash means the value is not listed here; it may have been measured.

compound,TcHisRS,LiHisRS,Toxoplasma,PfKRS1,CoaBC
Cc1cccc(S(=O)(=O)N2C[C@H]3C[C@H](C(=O)NCC(C)C)[C@@H](C2)O3)c1,0,11.97,-,0.7129,-
CN(C)CC(=O)N1Cc2nnn(C)c2C(COCc2ccccn2)C1.O=C(O)C(F)(F)F.O=C(O)C(F)(F)F (centres undefined),-,-,-7.66,-,-
[H][C@@]12CCN(S(=O)(=O)CC)[C@]1([H])CC[C@@H](c1nnc(C)o1)O2,-,-,36.03,-,-
CN(CC(=O)NCC(F)(F)F)Cc1nc2c(s1)CCCC2,0,2.5,-22.61,2.054,5.443
O=C(CCn1c(C(F)F)cc2cccnc21)NC1CCCCC1,3.042,6.207,-20.4,0.9724,0.8653
CN1CCC(N(CCc2ccccc2)C(=O)c2ccc(C#N)nc2)CC1,-1.98,20.65,29.11,-1.884,2.542
Cc1cc(C[S+]([O-])Cc2ccccc2C)no1 (centres undefined),5.357,12.39,-29.49,9.988,6.667
c1nc2c(c(N3CCOCC3)n1)CCNCC2,1.111,3.774,18.43,2.509,-1.22
CC(C)C1CN(c2cccc(C#N)n2)CCCN1Cc1ccc(F)cc1 (centres undefined),11.28,18.37,8.247,3.519,9.644
CC(C)(C)c1ncc2c(n1)CN(c1cc(NCCO)nc(N)n1)C2,5.357,21.24,-33.82,6.106,2.39
COCCNS(=O)(=O)c1cccc2c1CN(C(=O)c1cnccn1)CC2,3.96,4.11,8.74,2.771,-0.1631
Cc1nn(CC(C)C)c(N(C)C)c1CNCc1cccc2c1OCO2,6.015,21.43,-5.227,1.975,4.864
O=C(O)C(F)(F)F.[H][C@@]12CCCO[C@]1([H])[C@H](N1CCCC1)CN(C(=O)c1ccccc1)C2,-,-,-0.5039,-,-
CS(=O)(=O)NCc1cn2c(n1)CN(Cc1ccoc1)CC2,10.34,18,-,5.246,-1.434
O[C@@H]1CN(c2noc(C3CC3)n2)CC[C@H]1c1ccc2ccccc2c1,-2.632,9.677,-1.997,0.6257,6.042
Cc1cccc(CN2CCC(c3nnc(-c4scnc4C)o3)CC2)c1,13.19,21.74,-0.948,2.919,1.456
CC(C)NC(=O)C1(Cc2ccccc2-c2cncnc2)CCCNC1 (centres undefined),3.955,5.594,2.836,1.39,-4.116
COCCN1CCOCC12CCN(C(=O)c1c[nH]c3ccccc13)CC2,4.202,17.43,-8.294,1.935,6.288
N#CCCN(Cc1ccccn1)C(=O)Nc1cccnc1,1.571,5.172,5.769,6.162,2.784
O=C(O)C(F)(F)F.[H][C@@]12CN(Cc3ccsc3)CCO[C@]1([H])CN(C(=O)C1CC=CC1)C2,-,-,1.113,-,-
c1cc(CN2CCOC(Cn3cccn3)C2)c2c(c1)OCCO2 (centres undefined),2.312,16.67,-38.11,0.1455,2.477
Cn1nc(C(=O)N2CCOCC2)c2c1CN(CC1CC1)C2.O=C(O)C(F)(F)F.O=C(O)C(F)(F)F,-,-,-8.687,-,-
CC(C)c1cccc(CSc2nnc(CN3CCCC3=O)o2)n1,1.245,-0.9709,0.4405,1.268,6.25
CN1CCCN(C(=O)c2cc(-c3cc[nH]n3)n3ccccc23)CC1.O=C(O)C(F)(F)F.O=C(O)C(F)(F)F,-,-,-8.069,-,-
CCc1noc(CN(CCC2CCCCC2)CC(N)=O)n1,11,19.57,13.69,1.717,-1.937
O=C1CC[C@H]2[C@H](CCN2C(=O)c2ccc[nH]2)N1CCN1CCOCC1,1.754,17.74,-,-0.7437,1.85
COCCN1CCO[C@@H]2CN(C(=O)NCc3ccccc3)CC[C@@H]2C1,11.49,16,-,6.251,3.484
CCC[C@@H]1CN(Cc2cnc(-c3cccs3)nc2)C[C@H]1C(=O)O,9.524,13.95,-1.28,-1.266,0.3686
CCOC(=O)[C@]12CCCN(Cc3cccs3)C[C@H]1CN(CC(C)C)C2,12.85,25,-,3.602,2.788
CN(C)CCn1c2c(ccc1=O)CCN(Cc1cnn(C)c1)CC2,2.793,13.46,-,3.774,1.576
CC(=O)N(C)c1nc(CN2CCCC2Cn2nc(C)cc2C)cs1 (centres undefined),5.172,8.696,2.177,0.2223,6.323
COCc1nc(CNc2cc(C)nc(N3CCCCC3)n2)no1,4.124,8.046,20.27,6.288,3.356